US5516897A, “Monoazo reactive dyes and solutions thereof” (Zeneca Limited, priority 1992, dated 1996)

Experiments:
[1] = printing on cotton and viscose: shade, wash-off and cross-staining of the print; conditions: printed on cotton and viscose
[2] = printing on cotton: shade, wash-off and cross-staining of the print; conditions: printed on cotton
Text: The title product was obtained in a yield of 60% (34 g) and found to have a lambda max at 414 nm.

[3] = standard SCWOT test of print on cotton

## CCN(c1nc(Cl)nc(Nc2ccc(N=Nc3cc4c(S(=O)(=O)O)cc(S(=O)(=O)O)cc4cc3S(=O)(=O)O)c(NC(N)=O)c2)n1)c1cc(S(=O)(=O)O)ccc1C [Example 1]
[1]; alginate print paste
  cross-staining of adjacent fibres: little
  wash-off properties: excellent
[1]
  shade of print: attractive golden-yellow shade

## CC(C)N(c1cccc(S(=O)(=O)O)c1)c1nc(Cl)nc(Nc2ccc(N=Nc3cc4c(S(=O)(=O)O)cc(S(=O)(=O)O)cc4cc3S(=O)(=O)O)c(NC(N)=O)c2)n1 [Example 3]
[2]
  cross-staining of adjacent fibres: little
  wash-off: good

## CCN(c1nc(Cl)nc(Nc2cc(NC(C)=O)c(N=Nc3cc(S(=O)(=O)O)c4cccc(S(=O)(=O)O)c4c3)cc2OC)n1)c1cc(S(=O)(=O)O)ccc1C [Example 5]
[3]
  cross-staining: little
  wash-off properties: excellent
[2]
  shade of print: attractive golden-yellow shade

## CCN(c1nc(Nc2ccc(N=Nc3cc4c(S(=O)(=O)O)cc(S(=O)(=O)[O-])cc4cc3S(=O)(=O)O)c(NC(N)=O)c2)nc(-[n+]2ccc(C(=O)O)cc2)n1)c1cc(S(=O)(=O)O)ccc1C [Example 2]
[1]
  shade of print: attractive golden-yellow shade

## CC(C)N(c1ccc(S(=O)(=O)O)cc1)c1nc(Cl)nc(Nc2ccc(N=Nc3cc4c(S(=O)(=O)O)cc(S(=O)(=O)O)cc4cc3S(=O)(=O)O)c(NC(N)=O)c2)n1 [Example 4]
[2]
  wash-off: good
